Assay results as given in patent US20170189504A1, “NOVEL PEPTIDES AND COMBINATION OF PEPTIDES FOR USE IN IMMUNOTHERAPY AGAINST VARIOUS CANCERS” (immatics biotechnologies GmbH, priority 2015, published 2017).

Tested on: HLA-A*02
Assay: Identification and relative LC-MS quantitation of HLA-A*02-presented tumor-associated peptides on tissue samples (presentation profiles, Tables 13A, 13B, 15, FIG. 1)
Design: species or system human; key to Presentation score NHL / Presentation score CLL / Presentation score BRCA / Presentation score AML / Presentation score GB / Presentation score NSCLC / Presentation score GBC_CCC / Presentation score UEC / Presentation score MEL / Presentation score OSCAR / Presentation score GC / Presentation score UBC / Presentation score OC / Presentation score RCC / Presentation score CRC / Presentation score PCA / Presentation score HCC / Presentation score PC / Presentation score SCLC: specifically presented on tumors (++++); very highly over-presented on tumors compared to a panel of normal tissues (+++); highly over-presented on tumors compared to a panel of normal tissues (++); over-presented on tumors compared to a panel of normal tissues (+)
Details: for Presentation score NSCLC: non-small cell lung cancer (N = 90) vs panel of normal tissues (N = 262); for Presentation score OC: ovarian cancer (N = 20) vs panel of normal tissues (N = 262); for Peptide Presentation on cancer entities: HLA-A*02-binding tumor-associated peptides; for Presentation score NHL: non-Hodgkin lymphoma (N = 18) vs panel of normal tissues (N = 262); for Presentation score UBC: urinary bladder cancer (N = 16) vs panel of normal tissues (N = 262); for Presentation score UEC: uterine cancer (N = 15) vs panel of normal tissues (N = 262); for Presentation score AML: acute myeloid leukemia (N = 18) vs panel of normal tissues (N = 262); for Presentation score BRCA: breast cancer (N = 17) vs panel of normal tissues (N = 262); for Presentation score CLL: chronic lymphocytic leukemia (N = 17) vs panel of normal tissues (N = 262); for Presentation score GBC_CCC: gallbladder adenocarcinoma and cholangiocarcinoma (N = 6) vs panel of normal tissues (N = 262); for Presentation score CRC: colorectal cancer (N = 28) vs panel of normal tissues (N = 262); for Presentation score OSCAR: esophageal cancer, including cancer of the gastric-esophageal junction (N = 17) vs panel of normal tissues (N = 262); for Presentation score RCC: renal cell carcinoma (N = 20) vs panel of normal tissues (N = 262); for Presentation score GB: glioblastoma (N = 41) vs panel of normal tissues (N = 262); for Presentation score GC: gastric cancer (N = 29) vs panel of normal tissues (N = 262)
[1] = Table 13A, cancer entities on which the peptide was found presented
[2] = Table 13B, presentation on additional cancer entities
[3] = FIG. 1, A*02 positive samples, only samples with presentation shown

Substance	Presentation score NSCLC (HLA-A*02 peptides)	Presentation score OC (HLA-A*02 peptides)	Peptide Presentation on cancer entities [1]	Peptide Presentation on cancer entities [2]	Presentation score AML (HLA-A*02 peptides)	other results
119 (FIIQGLRSVGA; listed as Homo sapiens) [compound 119]	++++	++++	NSCLC, OC			
117 (KMPDVELFV; listed as Homo sapiens) [compound 117]	+			NSCLC, SCLC, MEL		
3 (KLEENGDLYL; listed as Homo sapiens) [compound 3]			NSCLC, OC, SCLC, UBC, BRCA, GBC_CCC, MEL, NHL	HCC, UEC, AML, HNSCC		Presentation score NHL (HLA-A*02 peptides): +; Presentation score UBC (HLA-A*02 peptides): +++
305 (KLFTSVFGV; listed as Homo sapiens) [compound 305]				AML		number of cancer tissues where the peptide was found to be presented [3]: 5
112 (SLGKFTFDV; listed as Homo sapiens) [compound 112]	++++		NSCLC, UEC			Presentation score UEC (HLA-A*02 peptides): ++++
29 (YLLDPSITL; listed as Homo sapiens) [compound 29]	+++		NSCLC, CLL, BRCA, GBC_CCC, AML, NHL	HCC, SCLC, MEL, HNSCC	+++	Presentation score BRCA (HLA-A*02 peptides): +++; Presentation score CLL (HLA-A*02 peptides): +++; Presentation score GBC_CCC (HLA-A*02 peptides): +++; Presentation score NHL (HLA-A*02 peptides): +++
9 (FLVDGSYSI; listed as Homo sapiens) [compound 9]	++++		NSCLC, OSCAR, GBC_CCC, CRC			Presentation score CRC (HLA-A*02 peptides): ++++; Presentation score OSCAR (HLA-A*02 peptides): ++++; Presentation score GBC_CCC (HLA-A*02 peptides): ++++
70 (LLLGDSALYL; listed as Homo sapiens) [compound 70]			RCC, NHL	CRC		Presentation score NHL (HLA-A*02 peptides): ++++; Presentation score RCC (HLA-A*02 peptides): ++++
141 (FLDKVLVAA; listed as Homo sapiens) [compound 141]			GC, NSCLC, PCA, CLL, OSCAR, UBC, RCC, AML, NHL	HCC, OC, UEC, BRCA, MEL, CRC, HNSCC	++	Presentation score CLL (HLA-A*02 peptides): +
110 (FLLGVSKEV; listed as Homo sapiens) [compound 110]			MEL	NHL		Presentation score MEL (HLA-A*02 peptides, melanoma (N = 7) vs panel of normal tissues (N = 262)): ++++
58 (YLLPLLPAL; listed as Homo sapiens) [compound 58]						Presentation score GB (HLA-A*02 peptides): ++++
265 (NTCPYVHNI; listed as Homo sapiens) [compound 265]			GB, CLL			Presentation score CLL (HLA-A*02 peptides): +; Presentation score GB (HLA-A*02 peptides): +++
153 (FISERVEVV; listed as Homo sapiens) [compound 153]		++	NSCLC, PCA, CLL, OSCAR, OC, UBC, NHL	SCLC, UEC		Presentation score CLL (HLA-A*02 peptides): +; Presentation score OSCAR (HLA-A*02 peptides): +; Presentation score NHL (HLA-A*02 peptides): ++; Presentation score UBC (HLA-A*02 peptides): +
50 (ILFHGVFYA; listed as Homo sapiens) [compound 50]	++++	++++	NSCLC, OC, UBC, BRCA	SCLC		Presentation score BRCA (HLA-A*02 peptides): ++++; Presentation score UBC (HLA-A*02 peptides): ++++
264 (KLFPQETLFL; listed as Homo sapiens) [compound 264]	+		NSCLC, CLL, OSCAR, AML, NHL		+	Presentation score CLL (HLA-A*02 peptides): +
257 (GLYTDPCGV; listed as Homo sapiens) [compound 257]	++++		NSCLC, NHL	HNSCC		Presentation score NHL (HLA-A*02 peptides): ++++
105 (ALLGTKILL; listed as Homo sapiens) [compound 105]			NHL			Presentation score NHL (HLA-A*02 peptides): ++++
129 (RLQDILWFL; listed as Homo sapiens) [compound 129]	++++		NSCLC, AML		++++	

Substance	Presentation score NSCLC (HLA-A*02 peptides)	Presentation score OC (HLA-A*02 peptides)	Peptide Presentation on cancer entities [1]	Peptide Presentation on cancer entities [2]	Presentation score AML (HLA-A*02 peptides)	other results
103 (YLVSEIFKA; listed as Homo sapiens) [compound 103]			AML		++++	
124 (KVMATIEKV; listed as Homo sapiens) [compound 124]	++++	++++	NSCLC, OC			
248 (YLDRFLAGV; listed as Homo sapiens) [compound 248]			GB, NSCLC, PCA, CLL, CRC, AML, NHL	SCLC, HNSCC	+	
78 (TVVTRLDEI; listed as Homo sapiens) [compound 78]		++++	GC, OSCAR, OC			Presentation score OSCAR (HLA-A*02 peptides): ++++; Presentation score GC (HLA-A*02 peptides): ++++
60 (ALFAPLVHL; listed as Homo sapiens) [compound 60]			AML	NHL	++++	
293 (FLVDGSWSI; listed as Homo sapiens) [compound 293]						Presentation score GB (HLA-A*02 peptides): ++++
5 (GIVAHIQEV; listed as Homo sapiens) [compound 5]		+	GC, NSCLC, PCA, CLL, OSCAR, OC, CRC, AML, NHL	UEC, MEL	++	Presentation score CLL (HLA-A*02 peptides): +
94 (LLLPAVPVGA; listed as Homo sapiens) [compound 94]	+		GB, NSCLC, OC, UBC, CRC, AML	SCLC	+++	Presentation score CRC (HLA-A*02 peptides): +++; Presentation score GB (HLA-A*02 peptides): +
48 (QVIEDSTGV; listed as Homo sapiens) [compound 48]	++++	++++	GC, NSCLC, OSCAR, OC			Presentation score OSCAR (HLA-A*02 peptides): ++++; Presentation score GC (HLA-A*02 peptides): ++++
42 (LLDSVSRL; listed as Homo sapiens) [compound 42]	++++		NSCLC, GBC_CCC, CRC			Presentation score CRC (HLA-A*02 peptides): ++++; Presentation score GBC_CCC (HLA-A*02 peptides): ++++
6 (ALFDSLRHV; listed as Homo sapiens) [compound 6]						Presentation score GB (HLA-A*02 peptides): ++++
109 (SLDPSVTHL; listed as Homo sapiens) [compound 109]			UEC			Presentation score UEC (HLA-A*02 peptides): ++++
72 (FLTAINYLL; listed as Homo sapiens) [compound 72]		++++	OC, RCC	UEC, RCC, AML		Presentation score RCC (HLA-A*02 peptides): ++++
35 (FLLPFSTVYL; listed as Homo sapiens) [compound 35]	+	+++	NSCLC, CLL, OC, AML, NHL	HNSCC	+	Presentation score CLL (HLA-A*02 peptides): ++
145 (YLWATIQRI; listed as Homo sapiens) [compound 145]	+	+++	NSCLC, OSCAR, OC, AML	UEC	++	Presentation score OSCAR (HLA-A*02 peptides): +
37 (ILAPFSVDL; listed as Homo sapiens) [compound 37]			AML		++++	
259 (ILLPRIIEA; listed as Homo sapiens) [compound 259]	++++	++++	NSCLC, OC	GB, GC, CLL, SCLC, UEC, BRCA, MEL, CRC, PC, HNSCC		number of cancer tissues where the peptide was found to be presented [3]: 27; number of cell lines where the peptide was found to be presented [3]: 1
157 (TLTSLLAQA; listed as Homo sapiens) [compound 157]			UBC	NSCLC, CRC, HNSCC		Presentation score UBC (HLA-A*02 peptides): +
